Experimental data as given in article PMC3676459.
Results are given in words; binding and its absence hold for the method and conditions named. In cells and extracts the contact can be indirect. Some results given as binding are weak or reduced against the parent protein; the word gives no strength. For part of these data: Sequences can lack the tags named with a protein.

Amino acid sequences for entries named in this document (tags omitted). A change or cut given only in a name is not applied to a line headed by its entry. Chains listed by the source or under a name are the forms on record and can include a tag or linker. Residues count along the entry.
UniProt Q7TQN4: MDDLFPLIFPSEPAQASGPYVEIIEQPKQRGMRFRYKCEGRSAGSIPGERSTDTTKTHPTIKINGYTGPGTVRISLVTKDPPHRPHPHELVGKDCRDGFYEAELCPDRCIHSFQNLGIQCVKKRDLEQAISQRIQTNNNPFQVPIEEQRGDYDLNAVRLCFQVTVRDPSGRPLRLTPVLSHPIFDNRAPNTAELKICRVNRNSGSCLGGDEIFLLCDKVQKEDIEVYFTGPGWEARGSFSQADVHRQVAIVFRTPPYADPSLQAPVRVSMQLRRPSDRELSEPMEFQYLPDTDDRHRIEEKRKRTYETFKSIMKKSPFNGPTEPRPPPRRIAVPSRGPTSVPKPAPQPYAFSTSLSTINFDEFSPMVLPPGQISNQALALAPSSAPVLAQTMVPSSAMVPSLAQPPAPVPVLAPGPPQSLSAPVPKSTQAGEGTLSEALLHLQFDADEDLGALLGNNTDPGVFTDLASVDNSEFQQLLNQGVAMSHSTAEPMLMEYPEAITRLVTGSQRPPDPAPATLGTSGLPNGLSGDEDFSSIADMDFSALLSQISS
UniProt P11142: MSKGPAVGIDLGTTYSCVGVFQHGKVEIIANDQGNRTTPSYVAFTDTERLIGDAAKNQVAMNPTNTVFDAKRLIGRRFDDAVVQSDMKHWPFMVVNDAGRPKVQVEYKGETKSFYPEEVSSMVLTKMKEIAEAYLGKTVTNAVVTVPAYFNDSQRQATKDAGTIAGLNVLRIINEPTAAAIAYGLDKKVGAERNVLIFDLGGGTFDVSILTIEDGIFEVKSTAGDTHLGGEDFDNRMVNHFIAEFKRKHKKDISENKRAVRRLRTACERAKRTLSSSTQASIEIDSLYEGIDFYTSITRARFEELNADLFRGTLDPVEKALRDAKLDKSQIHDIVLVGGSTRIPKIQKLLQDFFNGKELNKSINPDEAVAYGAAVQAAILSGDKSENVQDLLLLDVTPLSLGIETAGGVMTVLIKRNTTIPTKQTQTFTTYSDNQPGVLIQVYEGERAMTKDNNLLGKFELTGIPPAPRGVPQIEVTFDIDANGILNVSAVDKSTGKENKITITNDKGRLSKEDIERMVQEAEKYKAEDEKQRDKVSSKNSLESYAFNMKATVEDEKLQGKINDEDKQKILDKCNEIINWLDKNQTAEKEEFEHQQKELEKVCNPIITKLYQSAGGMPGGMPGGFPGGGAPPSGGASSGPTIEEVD
myc-tagged Hsc70 Phe68mut (pcDNA3.1(+)c-myc-HSC70mut) (P11142, form named): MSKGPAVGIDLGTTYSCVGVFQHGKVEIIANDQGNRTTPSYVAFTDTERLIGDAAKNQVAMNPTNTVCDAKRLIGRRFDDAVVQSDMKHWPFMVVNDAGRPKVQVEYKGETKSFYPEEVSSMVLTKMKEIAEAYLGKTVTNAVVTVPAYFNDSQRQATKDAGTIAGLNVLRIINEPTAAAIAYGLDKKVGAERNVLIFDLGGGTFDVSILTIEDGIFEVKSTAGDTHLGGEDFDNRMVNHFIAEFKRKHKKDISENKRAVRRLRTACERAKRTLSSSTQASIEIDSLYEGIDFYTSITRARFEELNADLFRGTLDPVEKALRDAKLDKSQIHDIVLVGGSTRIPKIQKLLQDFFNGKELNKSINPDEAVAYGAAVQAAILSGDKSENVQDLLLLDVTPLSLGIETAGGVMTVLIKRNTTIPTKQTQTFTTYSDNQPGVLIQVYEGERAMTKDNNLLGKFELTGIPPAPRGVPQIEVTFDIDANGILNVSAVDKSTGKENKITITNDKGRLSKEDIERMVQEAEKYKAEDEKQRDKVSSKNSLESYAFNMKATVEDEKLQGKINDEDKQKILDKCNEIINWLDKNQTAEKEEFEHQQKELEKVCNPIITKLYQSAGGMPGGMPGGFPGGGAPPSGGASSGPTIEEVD
UniProt P63018: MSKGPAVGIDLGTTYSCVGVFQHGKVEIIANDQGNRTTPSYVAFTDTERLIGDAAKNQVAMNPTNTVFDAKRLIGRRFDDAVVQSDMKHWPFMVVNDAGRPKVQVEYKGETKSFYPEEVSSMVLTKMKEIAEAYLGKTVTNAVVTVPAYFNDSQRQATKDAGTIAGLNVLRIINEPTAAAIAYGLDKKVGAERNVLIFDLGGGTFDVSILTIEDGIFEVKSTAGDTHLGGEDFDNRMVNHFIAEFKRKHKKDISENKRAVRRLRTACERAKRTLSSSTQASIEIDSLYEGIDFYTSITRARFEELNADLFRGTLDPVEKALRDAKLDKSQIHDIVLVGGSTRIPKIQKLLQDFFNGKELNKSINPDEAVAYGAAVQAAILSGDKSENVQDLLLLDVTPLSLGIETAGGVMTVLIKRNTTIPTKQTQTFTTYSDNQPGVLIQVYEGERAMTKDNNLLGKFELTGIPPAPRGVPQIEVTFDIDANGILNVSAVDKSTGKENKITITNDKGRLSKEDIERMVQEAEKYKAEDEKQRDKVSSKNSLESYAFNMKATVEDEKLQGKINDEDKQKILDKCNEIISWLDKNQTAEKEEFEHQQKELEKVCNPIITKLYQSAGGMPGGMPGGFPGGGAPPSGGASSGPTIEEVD
UniProt Q63369, residues 1-483: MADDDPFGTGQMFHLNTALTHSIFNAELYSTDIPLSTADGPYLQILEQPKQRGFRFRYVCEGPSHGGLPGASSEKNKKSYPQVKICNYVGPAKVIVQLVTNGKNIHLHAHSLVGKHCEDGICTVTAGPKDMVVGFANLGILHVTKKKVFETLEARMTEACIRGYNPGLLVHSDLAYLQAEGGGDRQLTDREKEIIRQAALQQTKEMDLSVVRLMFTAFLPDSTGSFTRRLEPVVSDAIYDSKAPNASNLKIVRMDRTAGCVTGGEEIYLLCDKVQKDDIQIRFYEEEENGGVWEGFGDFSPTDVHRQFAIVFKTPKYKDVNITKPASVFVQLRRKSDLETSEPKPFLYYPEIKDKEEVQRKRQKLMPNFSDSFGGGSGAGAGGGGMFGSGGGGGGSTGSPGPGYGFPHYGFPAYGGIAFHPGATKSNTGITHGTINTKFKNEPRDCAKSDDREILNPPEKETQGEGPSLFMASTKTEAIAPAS
UniProt Q04206: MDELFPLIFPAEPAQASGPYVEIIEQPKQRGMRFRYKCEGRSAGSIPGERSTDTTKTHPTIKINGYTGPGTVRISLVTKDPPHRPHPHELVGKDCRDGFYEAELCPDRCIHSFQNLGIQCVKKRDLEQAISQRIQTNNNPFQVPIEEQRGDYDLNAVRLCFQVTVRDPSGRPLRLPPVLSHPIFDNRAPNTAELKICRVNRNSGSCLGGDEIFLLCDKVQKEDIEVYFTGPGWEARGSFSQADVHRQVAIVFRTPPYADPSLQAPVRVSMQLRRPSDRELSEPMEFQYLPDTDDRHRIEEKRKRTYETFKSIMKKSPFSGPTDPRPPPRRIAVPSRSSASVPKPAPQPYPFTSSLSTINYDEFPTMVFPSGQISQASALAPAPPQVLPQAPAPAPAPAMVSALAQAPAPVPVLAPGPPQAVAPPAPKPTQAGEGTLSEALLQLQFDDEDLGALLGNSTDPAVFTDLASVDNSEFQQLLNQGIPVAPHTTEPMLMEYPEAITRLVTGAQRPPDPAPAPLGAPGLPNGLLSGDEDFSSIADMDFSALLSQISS

Key:
[1] = target: NF-κB p65 (endogenous, cultured hippocampal neurons) (rat (endogenous in hippocampal neurons)) (UniProt Q7TQN4); assay: proximity ligation; in situ PLA (Duolink II) on fixed (4% PFA), permeabilised cultured hippocampal neurons with two primary antibodies; spots counted in neurites, cell bodies and nuclei; also after treatment with DSG and glutamate (nuclear signals reduced with DSG)
[2] = target: myc-tagged Hsc70 (pcDNA3.1(+)c-myc-HSC70) (UniProt P11142); assay: condition: only without cross-linker and without ATP at 4°C; co-IP; lysates of co-transfected HEK293FT cells, IP with anti-c-Myc antibody, without cross-linker and without ATP, 4°C (Figure 2B; samples without cross-linker of Figure 1C); blot anti-Flag
[3] = target: T1, myc-tagged IκBε (pCMV c-myc-Iκε) (UniProt O00221); assay: co-IP; lysates of co-transfected HEK293FT cells, IP with anti-c-Myc antibody, without cross-linker and without ATP, 4°C (Figure 2B; samples without cross-linker of Figure 1C); blot anti-Flag
T1 sequence: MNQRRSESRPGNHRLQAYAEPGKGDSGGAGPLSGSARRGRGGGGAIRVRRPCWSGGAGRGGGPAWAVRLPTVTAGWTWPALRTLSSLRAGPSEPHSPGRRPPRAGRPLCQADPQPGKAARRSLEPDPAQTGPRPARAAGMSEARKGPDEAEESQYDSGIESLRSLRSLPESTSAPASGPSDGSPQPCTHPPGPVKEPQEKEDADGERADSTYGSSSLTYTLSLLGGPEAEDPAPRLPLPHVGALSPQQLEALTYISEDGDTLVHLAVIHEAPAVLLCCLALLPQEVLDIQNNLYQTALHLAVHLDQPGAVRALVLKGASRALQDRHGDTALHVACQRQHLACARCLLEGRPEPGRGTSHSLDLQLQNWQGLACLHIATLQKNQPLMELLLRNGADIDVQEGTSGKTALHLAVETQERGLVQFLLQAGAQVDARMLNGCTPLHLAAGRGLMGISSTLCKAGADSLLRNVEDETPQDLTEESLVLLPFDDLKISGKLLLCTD

[4] = target: myc-tagged Hsc70 (pcDNA3.1(+)c-myc-HSC70) (UniProt P11142); assay: co-IP; lysates of co-transfected HEK293FT cells, IP with anti-c-Myc antibody performed at 37°C, without cross-linker, even without ATP; blot anti-Flag
[5] = target: T1, myc-tagged IκBε (pCMV c-myc-Iκε); assay: co-IP; lysates of co-transfected HEK293FT cells, IP with rabbit anti-c-Myc antibody on protein A sepharose for 2 h, in presence of cross-linker (0.5 mg/ml DSP), with or without 3.3 mg axon enriched porcine brain extract and with or without ATP; lysis buffer 50 mM HEPES, 150 mM NaCl, 1% NP-40, pH …; blot anti-Flag
[6] = target: myc-tagged Hsc70 Phe68mut (pcDNA3.1(+)c-myc-HSC70mut) (UniProt P11142); assay: as above
[7] = target: myc-tagged Hsc70 (pcDNA3.1(+)c-myc-HSC70) (UniProt P11142); assay: as above
[8] = target: myc-tagged Hsc70 (pcDNA3.1(+)c-myc-HSC70) (UniProt P11142); assay: co-IP; lysates of co-transfected HEK293FT cells, IP with anti-c-Myc antibody, without cross-linker, in presence of 10 µM or 100 µM ATP, 4°C; blot anti-Flag

| binding [1] | binding [2] | binding [4] | binding [5] | binding [6] | binding [7] | binding [8] | Substance | binding [3] |
| --- | --- | --- | --- | --- | --- | --- | --- | --- |
| binds | – | – | – | – | – | – | Hsc70 (endogenous, cultured hippocampal neurons) (from UniProt P63018 1-646) | – |
| binds | – | – | – | – | – | – | NF-κB p50 (endogenous, cultured hippocampal neurons) (from UniProt Q63369 1-483) | – |
| – | no binding | binds | binds | no binding | binds | binds weakly | flag-tagged NF-κB p65 (pEF-FLAGpGKpuro p65WT) (from UniProt Q04206 1-551) | no binding (condition: without cross-linker) |
